About 3,700 (7%) of roughly 53,000 sequences were called active.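 How the source made its calls: active means gene knockdowns whose robust z-score for IL-1 alpha signal is at least 2 or at most -2, so actives lie on both sides; inactive means the rest.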 The list shows a part of the results.
Test: Components of the Cytosolic LPS Sensing Pathway: Gene Identification via Genome-wide siRNA Screen;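 further: robust z of the log signal after scaling to non-targeting control siRNA wells of the plate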
Conditions: RAW264.7 macrophages, IL-1a HTRF, actives lie on both sides, screened at 100 nM (by protocol), cells primed 5 h with Pam3CSK4 first
In short: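 Three distinct siRNAs per gene were tested singly at 100 nM in RAW264.7 macrophages. Following Pam3CSK4 priming and 24 hour LipidA transfection, IL-1a secretion was read by HTRF.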

Row | Sequence | z-score
1 | GGUAGGAUGAGUUGAAGAGTT against AF366264 | inactive: 0.0631
2 | GGUCAGUCUACUUUUCCACTT against Tas2r108 | inactive: -0.587
3 | GGGAGUGCUUUAGAAAAAATT against Acnat2 | inactive: -0.0203
4 | GCAAGAAACAGCAUUGUCCTT against Plch2 | inactive: -1.04
5 | GCCAAGACCUAUGAGUAUATT against Naaladl1 | inactive: 1.33
6 | GGUCCUGUCUAAAGCUCAATT against Efna5 | inactive: -0.799
7 | GCAGAUUGCUCAGAUUACCTT against Brip1 | inactive: 0.407
8 | CCUGUUGGCCAUUUCCUAGTT against Zdhhc21 | inactive: 0.404
9 | GGUUCAGACAACUCAGUGGTT against Pbx1 | inactive: 0.813
10 | GGGAUGGGACCAUCAAUCUTT against Cib1 | inactive: -1.13
11 | CCUGGCAGAGCAUUAUCUATT against Tmem201 | inactive: 0.558
12 | GGUGUCAGUCUCUAAACGATT against Hdgfl2 | inactive: -0.0249
13 | GGCCUAUAGACCUAAUUGUTT against Vmn1r70 | inactive: -0.272
14 | GGCCCUAUUAGAGAUAAAATT against Robo3 | inactive: -1.2
15 | GGAAACCAAACUGCUAUCUTT against Olfr1324 | inactive: -0.321
16 | GCCCGAAUUUGAUAAACAGTT against Gxylt2 | inactive: 0.184
17 | GGAGCUAGUUCUAAGCCCUTT against Nrm | inactive: 0.908
18 | GGCUCUUUCGAUUUCGGCATT against Unc50 | inactive: -0.0616
19 | GCAAAUUAACAGAGUGUCCTT against Dnase1l2 | inactive: -1.24
20 | GGAAUGAACCAUAUGUAGCTT against Kcnq3 | inactive: 0.14
21 | CGAAGGCUUCCCUUUUAUCTT against Tmem150b | active: 2.67
22 | GGGUCUUUCACUACGACAGTT against Vnn1 | inactive: 0.207

Copied from the list.
GGUAGGAUGAGUUGAAGAGTT against AF366264 | z-score: inactive: 0.0631
CCUGUUGGCCAUUUCCUAGTT against Zdhhc21 | z-score: inactive: 0.404
GGGAUGGGACCAUCAAUCUTT against Cib1 | z-score: inactive: -1.13
GGGAGUGCUUUAGAAAAAATT against Acnat2 | z-score: inactive: -0.0203
GCAGAUUGCUCAGAUUACCTT against Brip1 | z-score: inactive: 0.407
GGCCUAUAGACCUAAUUGUTT against Vmn1r70 | z-score: inactive: -0.272

Carrying on:

Row | Sequence | z-score
23 | GGAUGAACACUGUUACAAATT against Tusc3 | inactive: 0.352
24 | GCCUGACAUCAGUACCUUUTT against Pram1 | inactive: -0.196
25 | GGUCCGAUUUGAUCAGCGUTT against Smpd2 | inactive: 0.358
26 | GGACUUCAGCUCCAGGCUATT against Cdk5rap1 | inactive: 0.71
27 | CCAGCUACGACGUAACUGATT against Rpl3l | inactive: -1.12
28 | AACUAUGUCUGCUAUGUCATT against Cela2a | inactive: 1.03
29 | GGGACUGGAUUGUUGUUGUTT against Slc40a1 | inactive: -0.906
30 | GUGUCUGCUACCAUCGAAATT against Antkmt | inactive: 1.23
31 | GGAUAUUUAUUGUAUCCCATT against Col8a1 | inactive: -0.918
32 | GCACAAUAAAGCUUGUUGCTT against Trmt2a | active: -2.26
33 | GCUUCUAAUUGGAGAUUGCTT against Bex3 | inactive: -1.39
34 | GGACUUCUUAACCGCCCUGTT against Sirt5 | inactive: 0.355
35 | GCAGCGAUGGGUGUUUAUGTT against Dleu7 | inactive: 1.35
36 | GGAGCAGAAACUUGUCAAATT against Pik3c2g | inactive: 0.716
37 | GCAAUACCACCAAGAAAUATT against Zcchc8 | inactive: -0.221
38 | GGGCUAACCUAGGUGGACUTT against Eci1 | inactive: 0.811
39 | CGUGAUGAGUGAAAAUGAUTT against Cd34 | active: -2.12
40 | GGUUGUGGUCUUUGUUCUGTT against Olfr923 | inactive: -1.11
41 | GGUGGUUUUGUUUCUUUUUTT against Tab3 | inactive: 0.643
42 | GGUUUCGACUCUGAUGUCATT against Elp5 | inactive: -1.53
43 | GGAUCAAAUUAUGUCUUUGTT against Chuk | inactive: 0.261
44 | GGAGGAGACAGAGAUCAUUTT against Ruvbl2 | inactive: -1.31

Row | Sequence | z-score
45 | CGAGUAGAGGACUUCUACATT against Olfml2a | inactive: 1.38
46 | GGAACAUGAACACCAUCUGTT against Klk10 | inactive: -1.18
47 | GGAGCUCAUCUUCACAGGCTT against Echdc2 | inactive: -0.401
48 | GGCCGUGGAAUUUUAGACATT against Mtrf1 | inactive: 0.386
49 | GGAGUCAAGAUCAUCUUCCTT against Tbc1d10a | inactive: -1.18
50 | CCAAGAUCCAGUUCAGUUATT against Oaz3 | inactive: 0.236
51 | GCUUGGUAAAGAAAAACGATT against Xrcc5 | inactive: -0.567
52 | CCUGAUGUUCUCCUGUCUATT against Xcr1 | inactive: -0.299
53 | GGGUCAAUUAUUUAUGGUUTT against Gpr146 | inactive: 0.269
54 | GGUAGAGAUGUACAUUUGGTT against Chrdl2 | inactive: -1.72
55 | GGAGGCAGUUCGAAGAAUUTT against Rab9 | inactive: 1.23
56 | GGAGAACUUAAAGCACAAUTT against Plxnb1 | inactive: 0.179
57 | GGCUCUUUGGAGACCAUCATT against 4930432E11Rik | inactive: -1.7
58 | GGACAGACUGAUUAAGAAATT against Paqr8 | inactive: -0.569
59 | CCAAAGACCUUGGUCAUAATT against Tle3 | inactive: -1.19
60 | GGCUCAGUUUCGAAUUAAATT against Commd5 | inactive: 0.85
61 | GCAAUUUGAGCAGUAUGUATT against Cpsf7 | active: -2.85
62 | GCAAUGCUUACUUUUAUGGTT against Zmpste24 | inactive: 0.199
63 | GCACAAUGGAAGGUGUCCUTT against Tas2r114 | inactive: 0.597
64 | GGAAGGUCUUUGGGAACUGTT against Insl5 | inactive: 0.05
65 | GGGACAAGUGUUCUACUAUTT against Msra | inactive: -1.73
66 | GCUACAGCGGAAACUUCCUTT against Vps25 | inactive: -0.124

Some of the entries so far, with each value named.
GGUAGAGAUGUACAUUUGGTT against Chrdl2
  z-score: inactive: -1.72
GGAGGCAGUUCGAAGAAUUTT against Rab9
  z-score: inactive: 1.23

Following part.

Row | Sequence | z-score
67 | GCACUCCACUUUUGUACACTT against Cdc42ep5 | inactive: 0.924
68 | GGACAUCACUUGGAGACGATT against Capn10 | inactive: -0.282
69 | GGACUUCAUCAAAGUCUUATT against Cyp11a1 | inactive: 0.109
70 | GCUAUUUUGGGACGAGUCATT against Col13a1 | inactive: -0.7
71 | GGUUAAGAACUGUUCAGAUTT against Ifnar2 | inactive: 0.337
72 | GGUGGAAUAUAUUGAGUAUTT against Fam199x | inactive: 0.251
73 | GGGCGACUUAUUUUUUGUUTT against Zfp111 | inactive: 0.333
74 | GGGCAUCCUUCAACUUCAGTT against Zfp608 | inactive: 1.06
75 | GCUUCAAGAACGAACUGUUTT against Bmp10 | inactive: -0.108
76 | GGCUGUACAGUCAUGCAAGTT against Adamts5 | inactive: 0.000591
77 | GAUGACUCGGGUCCGAGUATT against Mrpl14 | inactive: 0.713
78 | GGAGCUGAAUCAUUAUCUGTT against Rabep1 | inactive: -0.0512
79 | GGAGAACAUCACCAGUUACTT against Samd4b | inactive: 1.06
80 | GGCAUUCACGUGUACUCCUTT against Slc26a5 | inactive: -0.7
81 | GGAAAAUUAUCCUAGUGCUTT against Serpinb2 | inactive: -0.355
82 | GGACAAGCAAGAGAUGCUUTT against Atp6v1h | inactive: 1.05
83 | GGCAUCCAACUUCUUUAUGTT against Mrgpra7 | inactive: -0.472
84 | GCUCCUGAGAGCUAUAGUUTT against Ddx39a | inactive: -1.23
85 | GGUAGUGUUAACUAUAUGGTT against Hmgb3 | inactive: -0.401
86 | GGGAGCAGUAGCAGUGUCATT against Ggnbp2 | inactive: -0.834
87 | GGAAAUCCACAGAUUAAGATT against Hspa13 | inactive: 0.61
88 | GGCACUUUGGAUUAAUUGUTT against Pole4 | inactive: -0.186

Row | Sequence | z-score
89 | GGUGACAGUUGUUCACAAATT against 4933405O20Rik | inactive: -1.4
90 | CCUCUGAUCGAAAGUCUAATT against Ccdc9 | inactive: 1.39
91 | GGGACAAAUCUUUUGAUUATT against Impact | inactive: 0.983
92 | GGAAACAGUCCAGAACGAGTT against Yju2 | inactive: -0.828
93 | GCAUUGUCAUGAUACAACATT against Fem1b | inactive: 0.793
94 | GGAAUAUACAGUGAAGACATT against Sycp1 | inactive: 0.755
95 | GGUGGACUCAUUCUAAUACTT against Nudt1 | inactive: -1.06
96 | GGACUUAGCGGAUAAUGACTT against Nlgn3 | inactive: -0.597
97 | GCAGAAGAUAGAGUAUGCATT against Myo1h | inactive: -1.06
98 | GGAGCAUCUUCUAAAGUAUTT against Wdr1 | inactive: -0.681
99 | GCUGUUAAGGAAGGCGGACTT against Pum3 | inactive: 0.839
100 | GCCCUGGUCUAUUCUGACUTT against Gpr152 | inactive: -0.862
101 | GGACUUACGAGAAAGCGUATT against Tacr1 | inactive: 0.202
102 | CGACCCUCUAAGGAUAUGCTT against Zfp456 | inactive: 1.01
103 | CCAUUAGCCUUAAUGAUGUTT against BC048403 | inactive: 0.794
104 | GGAAGAAUGUAUGAACUGUTT against Col26a1 | inactive: -0.811
105 | CCAGUGAUUACAGAAUUACTT against A4galt | inactive: 0.0963
106 | CGUCAUUUCUCAUCCUGCUTT against Olfr76 | inactive: -0.216

Source: PubChem BioAssay AID1508600 (Functional Genomics Laboratory (NCATS/FGL), 2020)
